According to the supplement of paper PMC7666118:
This is one part of the list.

By UniProt entry, the sequences of proteins in these tests, tags left out. Where a name states a change or a piece, a line headed by the entry shows the natural chain unless it says otherwise.
UniProt P04920: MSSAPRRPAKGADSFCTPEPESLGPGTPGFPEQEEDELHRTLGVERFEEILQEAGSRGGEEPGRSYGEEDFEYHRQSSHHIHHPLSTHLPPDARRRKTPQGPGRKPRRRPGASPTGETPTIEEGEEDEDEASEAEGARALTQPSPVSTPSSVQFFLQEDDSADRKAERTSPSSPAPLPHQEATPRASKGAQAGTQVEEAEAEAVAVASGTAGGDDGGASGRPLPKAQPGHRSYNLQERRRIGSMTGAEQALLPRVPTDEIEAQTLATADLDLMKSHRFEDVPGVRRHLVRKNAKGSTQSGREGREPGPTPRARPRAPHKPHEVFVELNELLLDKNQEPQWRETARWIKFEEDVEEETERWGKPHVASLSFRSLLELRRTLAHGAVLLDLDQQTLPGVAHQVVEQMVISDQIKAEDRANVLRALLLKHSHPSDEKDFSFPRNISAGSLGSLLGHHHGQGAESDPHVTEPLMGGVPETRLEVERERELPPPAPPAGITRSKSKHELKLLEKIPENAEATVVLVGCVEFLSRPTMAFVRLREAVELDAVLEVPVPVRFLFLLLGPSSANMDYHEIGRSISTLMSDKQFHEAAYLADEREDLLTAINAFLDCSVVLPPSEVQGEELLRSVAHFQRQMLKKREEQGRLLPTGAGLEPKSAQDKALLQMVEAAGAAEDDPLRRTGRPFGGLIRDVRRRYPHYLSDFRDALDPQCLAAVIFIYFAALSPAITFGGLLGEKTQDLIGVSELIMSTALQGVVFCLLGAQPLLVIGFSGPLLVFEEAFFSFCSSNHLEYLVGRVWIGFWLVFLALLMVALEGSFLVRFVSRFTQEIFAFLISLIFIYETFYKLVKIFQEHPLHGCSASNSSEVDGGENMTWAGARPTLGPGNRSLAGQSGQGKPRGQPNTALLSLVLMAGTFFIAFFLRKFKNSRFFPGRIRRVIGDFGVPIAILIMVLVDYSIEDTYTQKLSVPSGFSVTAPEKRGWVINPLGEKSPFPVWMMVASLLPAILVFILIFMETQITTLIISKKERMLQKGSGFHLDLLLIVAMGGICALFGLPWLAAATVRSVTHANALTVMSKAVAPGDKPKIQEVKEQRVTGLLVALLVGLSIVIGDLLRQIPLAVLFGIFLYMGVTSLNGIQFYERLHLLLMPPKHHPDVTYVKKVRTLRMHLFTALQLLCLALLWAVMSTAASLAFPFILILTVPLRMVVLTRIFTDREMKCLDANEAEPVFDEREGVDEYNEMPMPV
UniProt Q13530: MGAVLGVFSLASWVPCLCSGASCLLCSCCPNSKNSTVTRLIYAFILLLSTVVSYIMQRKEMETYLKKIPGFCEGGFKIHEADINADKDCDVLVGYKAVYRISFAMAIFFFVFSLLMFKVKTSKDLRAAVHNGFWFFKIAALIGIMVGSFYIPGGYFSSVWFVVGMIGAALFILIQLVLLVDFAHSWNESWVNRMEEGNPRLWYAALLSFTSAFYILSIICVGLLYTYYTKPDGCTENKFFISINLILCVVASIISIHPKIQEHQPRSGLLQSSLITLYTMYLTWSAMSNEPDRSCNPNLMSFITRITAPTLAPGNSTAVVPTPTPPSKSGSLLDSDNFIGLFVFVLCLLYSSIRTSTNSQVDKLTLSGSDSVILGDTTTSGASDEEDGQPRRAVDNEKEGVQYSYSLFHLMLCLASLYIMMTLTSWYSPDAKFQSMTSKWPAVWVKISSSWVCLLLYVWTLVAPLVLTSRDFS
UniProt Q13573: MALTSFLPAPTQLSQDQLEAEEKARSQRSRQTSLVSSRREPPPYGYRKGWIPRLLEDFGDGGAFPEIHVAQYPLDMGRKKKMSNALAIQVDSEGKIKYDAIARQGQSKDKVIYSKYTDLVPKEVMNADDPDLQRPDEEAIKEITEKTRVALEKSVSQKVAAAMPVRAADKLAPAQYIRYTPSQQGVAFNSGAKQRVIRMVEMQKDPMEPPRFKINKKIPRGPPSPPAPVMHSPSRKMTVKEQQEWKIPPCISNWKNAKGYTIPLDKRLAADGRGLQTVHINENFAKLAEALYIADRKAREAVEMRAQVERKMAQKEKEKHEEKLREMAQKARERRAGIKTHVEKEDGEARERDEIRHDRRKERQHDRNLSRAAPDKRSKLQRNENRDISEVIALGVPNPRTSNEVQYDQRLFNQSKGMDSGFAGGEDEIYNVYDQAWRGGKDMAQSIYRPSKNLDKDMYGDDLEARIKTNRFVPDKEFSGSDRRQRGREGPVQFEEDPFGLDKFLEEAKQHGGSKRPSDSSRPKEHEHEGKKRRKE
UniProt Q15797: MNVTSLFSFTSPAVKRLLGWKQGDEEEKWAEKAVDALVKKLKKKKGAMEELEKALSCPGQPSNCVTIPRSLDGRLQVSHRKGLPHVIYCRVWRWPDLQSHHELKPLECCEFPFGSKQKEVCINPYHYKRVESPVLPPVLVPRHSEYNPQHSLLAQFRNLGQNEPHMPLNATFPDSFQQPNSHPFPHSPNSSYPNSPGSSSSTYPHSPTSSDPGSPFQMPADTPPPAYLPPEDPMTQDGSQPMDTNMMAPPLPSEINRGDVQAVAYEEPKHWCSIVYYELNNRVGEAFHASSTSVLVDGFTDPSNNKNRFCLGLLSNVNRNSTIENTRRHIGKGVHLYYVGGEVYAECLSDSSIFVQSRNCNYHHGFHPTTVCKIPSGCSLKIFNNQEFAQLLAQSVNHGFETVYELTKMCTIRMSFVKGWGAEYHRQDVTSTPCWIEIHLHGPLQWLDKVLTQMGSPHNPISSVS
UniProt Q8WTS6: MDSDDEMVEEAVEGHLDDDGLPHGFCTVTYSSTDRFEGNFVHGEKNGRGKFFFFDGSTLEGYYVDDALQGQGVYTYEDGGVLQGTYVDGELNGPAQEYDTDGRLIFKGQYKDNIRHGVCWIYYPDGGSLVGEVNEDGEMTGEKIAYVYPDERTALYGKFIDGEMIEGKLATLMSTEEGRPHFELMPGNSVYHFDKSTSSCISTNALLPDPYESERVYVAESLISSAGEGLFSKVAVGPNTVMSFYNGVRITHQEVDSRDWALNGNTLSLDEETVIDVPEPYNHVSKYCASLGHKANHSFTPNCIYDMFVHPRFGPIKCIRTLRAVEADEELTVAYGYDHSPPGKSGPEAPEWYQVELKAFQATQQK
UniProt Q7L8J4: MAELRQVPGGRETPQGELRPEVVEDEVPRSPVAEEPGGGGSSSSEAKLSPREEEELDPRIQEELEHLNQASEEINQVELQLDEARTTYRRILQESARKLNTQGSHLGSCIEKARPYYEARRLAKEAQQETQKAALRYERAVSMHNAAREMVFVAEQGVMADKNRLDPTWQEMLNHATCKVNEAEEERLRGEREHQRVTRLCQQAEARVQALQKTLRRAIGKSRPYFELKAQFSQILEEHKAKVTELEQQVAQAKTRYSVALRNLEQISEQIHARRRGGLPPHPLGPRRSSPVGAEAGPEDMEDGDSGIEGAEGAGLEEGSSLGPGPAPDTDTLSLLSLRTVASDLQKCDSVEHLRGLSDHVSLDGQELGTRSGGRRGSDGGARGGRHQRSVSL
UniProt Q96GZ6: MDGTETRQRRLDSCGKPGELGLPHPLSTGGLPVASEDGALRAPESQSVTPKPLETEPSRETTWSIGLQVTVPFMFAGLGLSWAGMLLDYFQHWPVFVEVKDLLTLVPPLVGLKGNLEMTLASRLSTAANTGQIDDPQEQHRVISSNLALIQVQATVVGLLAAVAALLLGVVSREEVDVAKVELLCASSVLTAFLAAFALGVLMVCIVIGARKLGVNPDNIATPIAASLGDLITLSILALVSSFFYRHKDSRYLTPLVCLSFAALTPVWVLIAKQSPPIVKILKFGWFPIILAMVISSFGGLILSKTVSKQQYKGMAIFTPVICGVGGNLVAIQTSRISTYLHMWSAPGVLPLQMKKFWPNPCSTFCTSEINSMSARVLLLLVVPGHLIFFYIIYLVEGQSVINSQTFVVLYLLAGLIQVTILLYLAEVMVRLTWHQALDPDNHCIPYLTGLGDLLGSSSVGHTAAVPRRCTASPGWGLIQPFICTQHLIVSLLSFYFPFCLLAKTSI
UniProt Q9BYW2: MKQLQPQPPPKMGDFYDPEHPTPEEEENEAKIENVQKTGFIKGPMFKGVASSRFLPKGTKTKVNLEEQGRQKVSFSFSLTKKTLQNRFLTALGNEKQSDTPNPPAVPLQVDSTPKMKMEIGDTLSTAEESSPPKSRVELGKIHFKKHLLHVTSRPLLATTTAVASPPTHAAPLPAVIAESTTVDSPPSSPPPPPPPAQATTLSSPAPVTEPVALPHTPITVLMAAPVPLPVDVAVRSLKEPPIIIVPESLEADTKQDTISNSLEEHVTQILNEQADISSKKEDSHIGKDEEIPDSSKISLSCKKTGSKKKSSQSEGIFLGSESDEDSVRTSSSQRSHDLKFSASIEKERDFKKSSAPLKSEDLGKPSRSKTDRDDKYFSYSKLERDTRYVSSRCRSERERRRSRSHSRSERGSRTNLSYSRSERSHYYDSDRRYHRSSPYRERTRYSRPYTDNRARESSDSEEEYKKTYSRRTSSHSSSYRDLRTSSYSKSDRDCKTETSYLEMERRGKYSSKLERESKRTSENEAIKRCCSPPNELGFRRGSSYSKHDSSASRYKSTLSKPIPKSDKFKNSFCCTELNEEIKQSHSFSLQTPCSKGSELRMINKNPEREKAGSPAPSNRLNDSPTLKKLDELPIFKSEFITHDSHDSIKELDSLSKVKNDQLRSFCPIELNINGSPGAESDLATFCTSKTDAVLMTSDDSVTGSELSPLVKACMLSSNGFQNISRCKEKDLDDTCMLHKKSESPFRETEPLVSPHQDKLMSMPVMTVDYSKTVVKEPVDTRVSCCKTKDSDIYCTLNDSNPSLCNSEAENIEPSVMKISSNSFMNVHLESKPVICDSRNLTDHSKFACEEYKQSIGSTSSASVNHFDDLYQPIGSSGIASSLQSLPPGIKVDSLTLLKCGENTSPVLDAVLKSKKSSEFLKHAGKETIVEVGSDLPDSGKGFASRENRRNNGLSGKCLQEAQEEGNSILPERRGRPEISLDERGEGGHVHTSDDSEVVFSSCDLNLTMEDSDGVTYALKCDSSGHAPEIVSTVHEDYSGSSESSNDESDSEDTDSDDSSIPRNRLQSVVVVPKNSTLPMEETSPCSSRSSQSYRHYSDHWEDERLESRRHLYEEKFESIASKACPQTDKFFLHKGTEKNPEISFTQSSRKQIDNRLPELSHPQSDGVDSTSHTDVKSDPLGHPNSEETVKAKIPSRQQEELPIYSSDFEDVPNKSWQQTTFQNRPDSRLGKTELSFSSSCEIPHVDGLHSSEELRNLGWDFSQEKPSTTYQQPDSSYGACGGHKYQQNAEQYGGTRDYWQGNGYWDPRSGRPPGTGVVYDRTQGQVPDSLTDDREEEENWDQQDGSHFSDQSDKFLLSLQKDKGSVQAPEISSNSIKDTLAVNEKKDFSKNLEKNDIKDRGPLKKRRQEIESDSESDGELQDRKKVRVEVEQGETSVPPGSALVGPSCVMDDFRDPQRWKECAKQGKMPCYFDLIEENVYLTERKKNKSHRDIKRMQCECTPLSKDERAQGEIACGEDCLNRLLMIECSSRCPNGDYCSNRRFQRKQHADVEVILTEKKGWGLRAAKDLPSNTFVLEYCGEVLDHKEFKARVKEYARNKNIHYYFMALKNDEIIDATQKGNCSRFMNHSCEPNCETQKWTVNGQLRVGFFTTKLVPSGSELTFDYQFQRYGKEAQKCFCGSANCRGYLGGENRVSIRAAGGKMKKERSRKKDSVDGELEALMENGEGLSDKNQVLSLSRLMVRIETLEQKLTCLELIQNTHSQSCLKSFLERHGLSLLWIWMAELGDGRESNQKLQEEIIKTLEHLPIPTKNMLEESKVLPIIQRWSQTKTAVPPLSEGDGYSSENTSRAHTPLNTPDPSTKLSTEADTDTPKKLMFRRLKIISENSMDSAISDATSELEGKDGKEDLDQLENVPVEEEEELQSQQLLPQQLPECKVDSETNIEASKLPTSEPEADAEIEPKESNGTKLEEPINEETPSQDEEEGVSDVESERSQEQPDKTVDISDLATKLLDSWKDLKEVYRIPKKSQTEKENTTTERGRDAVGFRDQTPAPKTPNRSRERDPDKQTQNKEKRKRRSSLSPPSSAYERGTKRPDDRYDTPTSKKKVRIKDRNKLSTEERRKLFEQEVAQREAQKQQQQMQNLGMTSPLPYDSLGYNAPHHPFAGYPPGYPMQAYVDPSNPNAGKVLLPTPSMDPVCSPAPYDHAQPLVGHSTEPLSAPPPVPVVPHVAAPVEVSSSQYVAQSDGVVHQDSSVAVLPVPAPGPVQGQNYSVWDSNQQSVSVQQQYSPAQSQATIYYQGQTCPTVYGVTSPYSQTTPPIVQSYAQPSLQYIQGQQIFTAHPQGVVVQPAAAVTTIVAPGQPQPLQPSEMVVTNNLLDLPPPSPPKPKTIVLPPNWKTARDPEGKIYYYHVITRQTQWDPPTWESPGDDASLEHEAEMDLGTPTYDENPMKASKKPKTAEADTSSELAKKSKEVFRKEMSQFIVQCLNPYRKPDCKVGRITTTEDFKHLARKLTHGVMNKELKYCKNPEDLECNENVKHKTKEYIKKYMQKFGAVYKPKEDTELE

Compound: COc1ccc(Cn2ccc3cc(C)c(C(=O)NO)cc32)cc1
Test: dose-dependent thermal stabilisation call (2D-TPP, DLPTP, 10% FDR) (binary (1 = stabilised)); higher = stabilised by the compound
Settings: system: HL-60 intact cells; concentration range 0.04-10 µM
Protocol: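 2D thermal proteome profiling in intact HL-60 cells treated with BRD-3811 (0, 0.04, 0.29, 2, 10 uM) for 90 min at 37 C, then heated 3 min at one of 12 temperatures (42-63.9 C). Soluble protein was quantified by TMT10 MS. The value is the DLPTP call of the paper: dose-dependent thermal stabilisation over all temperatures at 10% FDR (F-test of a dose-response against a flat model); one experiment, one call per tested protein.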

Target | dose-dependent thermal stabilisation call
SNRNP27 (UniProt Q8WVK2) | inactive: 0
SLC4A2 (UniProt P04920) | inactive: 0
SETDB1 (UniProt Q15047) | inactive: 0
SERINC3 (UniProt Q13530) | inactive: 0
SNW1 (UniProt Q13573) | inactive: 0
SMAD1 (UniProt Q15797) | inactive: 0
SETD7 (UniProt Q8WTS6) | inactive: 0
SH3BP5L (UniProt Q7L8J4) | inactive: 0
SLC41A3 (UniProt Q96GZ6) | inactive: 0
SETD2 (UniProt Q9BYW2) | inactive: 0
